# Reference: paper PMC12040169 (PLOS Biology, 2025)
# The list shows a part of the results.
# Tested on: T1, CTL2-GFP (C. trachomatis L2/434/Bu, GFP-expressing)
# T1 construct: L2/434/Bu, GFP-expressing
# Design: species or system HeLa; Intracellular C. trachomatis growth in HeLa cells, bulk GFP fluorescence relative to DMSO
# Conditions: bulk GFP, single well; 28.5 h, 10 µM; inhibitor
row,SMILES,% of control remaining
1,CC(C)[C@@H](CO)Nc1cncc(-c2cccc(CO)c2)n1 [CBK065427],174.281%
2,O=C(O)C1CSC(c2ccc([N+](=O)[O-])cc2)N1 (stereo not shown) [CBK260909],101.997%
3,c1cnc(OC2CCN(CC3CCCCC3)CC2)c(OCCN2CCOCC2)n1 [CBK082941T],96.7369%
4,O=C1CNC(=O)C2(C/C=C/C[C@H]3COCC[C@@H]3N1)CCN(C(=O)CCc1cccnc1)CC2 [CBK292051],102.695%
5,COc1ccc(-c2cc(C(=O)Nc3nccs3)cnc2-c2ccc(Cl)cc2)cc1 [CBK037553],205.175%
6,Oc1c(C(Nc2cccnc2)c2cccs2)ccc2cccnc12 (stereo not shown) [CBK268637],49.2071%
7,CC(=O)N1CCC(C(=O)NC(=O)Nc2ccccc2F)CC1 [CBK034848],108.262%
8,CCN(CC)CCN1CCN(c2cc(-c3ccc4c(c3)OCO4)ncn2)CC1 [CBK037694],150.588%
9,Cc1cn(CC(=O)N2CCCC3(CCN(C(=O)c4ccoc4)C3)C2)c(=O)[nH]c1=O (stereo not shown) [CBK131634],103.562%
10,Cc1ccc(CCP(=O)(O)CN2CCOCC2)cn1 [CBK022176],115.719%
11,Cn1ccnc1C1(O)CCN(C(=O)c2cc(F)cc(F)c2)CC1 [CBK283544],107.334%
12,Cc1ccc(-c2noc([C@@H]3Cc4[nH]cnc4CN3C(=O)CCC(=O)O)n2)cc1 [CBK288958],131.7%
13,Cc1nn(C)c(C)c1CCC(=O)NCC1CCN(c2ccccc2F)C1 (stereo not shown) [CBK304357],126.478%
14,O=C(O)CCc1ccc(S(=O)(=O)Nc2ccccc2Cc2ccccc2)cc1 [CBK295616],127.892%
15,COc1ccc(S(=O)(=O)N(C)CC(=O)N2CCOCC2)cc1C [CBK267898],113.817%
16,Cc1cc(C)c2nc(NC(=O)c3ccc(=O)n(CC(=O)N(C)c4ccccc4)c3)sc2c1 [CBK286025],99.2611%
17,CC(C)C(=O)N1CCC(n2c(=O)oc3ccc(Cl)cc32)CC1 [CBK284339],100.955%
18,Cc1cc2cc(C(=O)NCC3(N(C)C)CCN(C)CC3)ccc2o1 [CBK282623],112.036%
19,CC(=O)Nc1ccc(C(=O)NCc2ccc(OCC(F)(F)F)cc2)cc1 [CBK305732],141.961%
20,CC(C)(C)CC(=O)N1CCCC1c1n[nH]cc1-c1ccncc1 (stereo not shown) [CBK283430],120.105%
21,CCCCCN1CCn2nc(CNc3cnccn3)cc2C1 [CBK306713],147.234%
22,Cc1nc2cc(OCc3nc(C(=O)N(CCO)CCO)co3)ccc2s1 [CBK307684],130.282%
23,CC(=O)Nc1ccccc1-c1nc2ccccc2nc1OCC(=O)c1ccc(Cl)cc1 [CBK266269],157.392%
24,O=C(c1ccno1)n1nccc1-c1cc(-c2ccccc2)no1 [CBK022074],122.063%
25,COc1ccc(CN2CCN(C(=O)c3ccccc3F)CC2)c(OC)c1 [CBK033601],126.364%

# No new results follow: an excerpt of the list.
row,SMILES,% of control remaining
5,COc1ccc(-c2cc(C(=O)Nc3nccs3)cnc2-c2ccc(Cl)cc2)cc1 [CBK037553],205.175%
6,Oc1c(C(Nc2cccnc2)c2cccs2)ccc2cccnc12 (stereo not shown) [CBK268637],49.2071%
7,CC(=O)N1CCC(C(=O)NC(=O)Nc2ccccc2F)CC1 [CBK034848],108.262%
8,CCN(CC)CCN1CCN(c2cc(-c3ccc4c(c3)OCO4)ncn2)CC1 [CBK037694],150.588%
9,Cc1cn(CC(=O)N2CCCC3(CCN(C(=O)c4ccoc4)C3)C2)c(=O)[nH]c1=O (stereo not shown) [CBK131634],103.562%
10,Cc1ccc(CCP(=O)(O)CN2CCOCC2)cn1 [CBK022176],115.719%
11,Cn1ccnc1C1(O)CCN(C(=O)c2cc(F)cc(F)c2)CC1 [CBK283544],107.334%
12,Cc1ccc(-c2noc([C@@H]3Cc4[nH]cnc4CN3C(=O)CCC(=O)O)n2)cc1 [CBK288958],131.7%
13,Cc1nn(C)c(C)c1CCC(=O)NCC1CCN(c2ccccc2F)C1 (stereo not shown) [CBK304357],126.478%
14,O=C(O)CCc1ccc(S(=O)(=O)Nc2ccccc2Cc2ccccc2)cc1 [CBK295616],127.892%
15,COc1ccc(S(=O)(=O)N(C)CC(=O)N2CCOCC2)cc1C [CBK267898],113.817%
16,Cc1cc(C)c2nc(NC(=O)c3ccc(=O)n(CC(=O)N(C)c4ccccc4)c3)sc2c1 [CBK286025],99.2611%
17,CC(C)C(=O)N1CCC(n2c(=O)oc3ccc(Cl)cc32)CC1 [CBK284339],100.955%

# Following part

row,SMILES,% of control remaining
1,O=C(CN1CCN(C(c2ccccc2)c2ccccc2)CC1)Nc1c2c(nc3ccccc13)CCC2 [CBK278299G],98.374%
2,CSCCC(NC(=O)C1CCC(C)CC1)C(=O)O (stereo not shown) [CBK286552],113.69%
3,N#Cc1c(F)cccc1NCc1cccnc1 [CBK057053],106.205%
4,CN(C)Cc1cc(-c2ccc(CNC(=O)C3CC3)cc2)nn1C [CBK283470],129.036%
5,COc1ccc([C@@]23CC[C@H](NC(=O)Nc4ccc(F)c(F)c4)C[C@@H]2N(Cc2ccccc2)CC3)cc1OC [CBK041333T],81.8518%
6,O=C(NCCC1SC(NC2CC3C=CC2C3)=NC1=O)c1ccccc1Cl (stereo not shown) [CBK200062],110.412%
7,C=CCC1c2cccc(C(=O)O)c2C(=O)N1c1ccc(F)cc1 (stereo not shown) [CBK113158],105.935%
8,COc1ccc(NC(=O)Nc2ccccc2C(N)=O)cc1OC [CBK267061],151.657%
9,NC(=O)NC(Cc1c[nH]c2ccccc12)C(=O)O (stereo not shown) [CBK218895],130.924%
10,CCOC(=O)N1CCN(C(C(=O)O)c2c[nH]c3ccc(C)cc23)CC1 (stereo not shown) [CBK286632],87.9818%
11,COc1ccc(CNC(=O)C2CCCN(c3nc4c(-c5ccc(C)cc5)csc4c(=O)[nH]3)C2)cc1 (stereo not shown) [CBK215530],109.006%
12,c1cnn(CC2CCCN2c2ncnc3sccc23)c1 (stereo not shown) [CBK304968],113.064%
13,O=c1c2ccccc2c(-c2ccc(Cl)cc2)nn1-c1cc(N2CCNCC2)ccc1[N+](=O)[O-] [CBK265763],106.704%
14,Cc1cc(NCC2(CO)CCOCC2)nc(N2CCCC2)n1 [CBK307005],141.063%
15,CCCCNc1nnc(-c2cc(C)nn2C)s1 [CBK288019],102.855%
16,COc1cc(-c2nc(-c3ccc(Cl)cc3)c(-c3ccccc3)[nH]2)c([N+](=O)[O-])cc1OC [CBK264503],108.169%
17,CCc1nc2ccccc2c(NC(=O)CN2CCCCCC2)c1C [CBK261580G],110.556%
18,C[C@H](C(=O)N1CCCC1)C1CC[C@@]2(C)Cc3sc(NC(=O)C4CC4)nc3[C@@H](C)[C@@H]2[C@H]1O (stereo partly shown) [CBK289432],116.346%
19,OC(CNc1nccnc1-c1ccsc1)COc1ccccc1 (stereo not shown) [CBK037057],119.595%
20,CN(c1ccc(C(O)(C(F)(F)F)C(F)(F)F)cc1)S(=O)(=O)c1cccs1 [CBK067061],104.135%
21,CC(=O)NC[C@H]1CN(c2ccc(C#N)c(C)c2)C(=O)O1 [CBK010393],39.5786%
22,O=C(NCCc1ccc(F)cc1)C1CN(C(=O)c2ccc3nsnc3c2)C1 [CBK285690],134.061%
23,Cc1ccc(CNC(=O)C2CCN(S(=O)(=O)N3CCOCC3)CC2)cc1 [CBK294467],106.989%
24,O=C(CCC(=O)c1ccccc1)Nc1cc2ccccc2c(N2CCNCC2)n1 [CBK028418T],102.864%
